The experiment has as its target recombinant SLC7A11 protein (human) (UniProt Q9UPY5). The experiment can be described thus: SPR; competition: SLC7A11 coupled on the chip; binding of TRIM3 to SLC7A11 at varying concentrations of CypA; both purified. For orientation: In SPR one partner is held on a chip, and binding of the other changes the refractive index at the surface.

Chains of the proteins cited; added tags and fusions are not shown. Lines headed by an entry give the natural chain unless they say otherwise; changes in a name come on top.
UniProt Q9UPY5: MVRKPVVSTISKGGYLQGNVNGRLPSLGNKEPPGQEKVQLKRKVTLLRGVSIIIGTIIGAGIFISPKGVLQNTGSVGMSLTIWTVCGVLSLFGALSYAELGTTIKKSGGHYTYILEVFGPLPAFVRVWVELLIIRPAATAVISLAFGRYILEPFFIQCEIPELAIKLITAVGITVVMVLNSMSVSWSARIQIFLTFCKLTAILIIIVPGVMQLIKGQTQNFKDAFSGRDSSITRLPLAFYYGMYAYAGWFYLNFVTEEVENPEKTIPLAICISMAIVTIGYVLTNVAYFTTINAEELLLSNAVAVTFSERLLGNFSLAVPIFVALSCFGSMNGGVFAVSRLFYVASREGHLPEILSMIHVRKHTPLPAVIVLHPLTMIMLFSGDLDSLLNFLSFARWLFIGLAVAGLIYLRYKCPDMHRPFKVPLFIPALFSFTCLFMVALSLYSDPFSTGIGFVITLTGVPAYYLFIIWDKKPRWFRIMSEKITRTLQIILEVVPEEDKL

Drawing on article PMC12822425, this text covers binding for one molecule.

No constants are given. Whether binding was seen depends on the method and setting. Binding calls can cover weak binding; strength is not graded here.

B1: TRIM3 protein (SPR) (enzyme, UniProt O75382 1-744)
chain: MAKREDSPGPEVQPMDKQFLVCSICLDRYQCPKVLPCLHTFCERCLQNYIPAQSLTLSCPVCRQTSILPEQGVSALQNNFFISSLMEAMQQAPDGAHDPEDPHPLSVVAGRPLSCPNHEGKTMEFYCEACETAMCGECRAGEHREHGTVLLRDVVEQHKAALQRQLEAVRGRLPQLSAAIALVGGISQQLQERKAEALAQISAAFEDLEQALQQRKQALVSDLETICGAKQKVLQSQLDTLRQGQEHIGSSCSFAEQALRLGSAPEVLLVRKHMRERLAALAAQAFPERPHENAQLELVLEVDGLRRSVLNLGALLTTSATAHETVATGEGLRQALVGQPASLTVTTKDKDGRLVRTGSAELRAEITGPDGTRLPVPVVDHKNGTYELVYTARTEGELLLSVLLYGQPVRGSPFRVRALRPGDLPPSPDDVKRRVKSPGGPGSHVRQKAVRRPSSMYSTGGKRKDNPIEDELVFRVGSRGREKGEFTNLQGVSAASSGRIVVADSNNQCIQVFSNEGQFKFRFGVRGRSPGQLQRPTGVAVDTNGDIIVADYDNRWVSIFSPEGKFKTKIGAGRLMGPKGVAVDRNGHIIVVDNKSCCVFTFQPNGKLVGRFGGRGATDRHFAGPHFVAVNNKNEIVVTDFHNHSVKVYSADGEFLFKFGSHGEGNGQFNAPTGVAVDSNGNIIVADWGNSRIQVFDSSGSFLSYINTSAEPLYGPQGLALTSDGHVVVADAGNHCFKAYRYLQ
For B1, the binding result was “binds”.
